Results published in article PMC6876566.
These are yes or no findings as the source states them, for the method shown. Binding seen in cells or lysates may run through a third protein. Some results given as binding are weak or reduced against the parent protein; the word gives no strength.

B1: ATRIP (in HEK293T cells) (protein, UniProt Q8WXE1 1-791)
chain: MAGTSAPGSKRRSEPPAPRPGPPPGTGHPPSKRARGFSAAAAPDPDDPFGAHGDFTADDLEELDTLASQALSQCPAAARDVSSDHKVHRLLDGMSKNPSGKNRETVPIKDNFELEVLQAQYKELKEKMKVMEEEVLIKNGEIKILRDSLHQTESVLEEQRRSHFLLEQEKTQALSDKEKEFSKKLQSLQSELQFKDAEMNELRTKLQTSERANKLAAPSVSHVSPRKNPSVVIKPEACSPQFGKTSFPTKESFSANMSLPHPCQTESGYKPLVGREDSKPHSLRGDSIKQEEAQKSFVDSWRQRSNTQGSILINLLLKQPLIPGSSLSLCHLLSSSSESPAGTPLQPPGFGSTLAGMSGLRTTGSYDGSFSLSALREAQNLAFTGLNLVARNECSRDGDPAEGGRRAFPLCQLPGAVHFLPLVQFFIGLHCQALQDLAAAKRSGAPGDSPTHSSCVSSGVETNPEDSVCILEGFSVTALSILQHLVCHSGAVVSLLLSGVGADSAAGEGNRSLVHRLSDGDMTSALRGVADDQGQHPLLKMLLHLLAFSSAATGHLQASVLTQCLKVLVKLAENTSCDFLPRFQCVFQVLPKCLSPETPLPSVLLAVELLSLLADHDQLAPQLCSHSEGCLLLLLYMYITSRPDRVALETQWLQLEQEVVWLLAKLGVQSPLPPVTGSNCQCNVEVVRALTVMLHRQWLTVRRAGGPPRTDQQRRTVRCLRDTVLLLHGLSQKDKLFMMHCVEVLHQFDQVMPGVSMLIRGLPDVTDCEEAALDDLCAAETDVEDPEVECG

Tests used:
[1] = target: T1, ATR interacting protein (ATRIP) (human (endogenous in HCT116)) (UniProt Q8WXE1); assay: co-IP; endogenous proteins, HCT116 whole cell lysates, immunoprecipitation with ZFP161 or ATRIP antibody and protein A beads; lysis in high salt NETN (500 mM NaCl), diluted with NET buffer; unstressed cells, also after DNA damage or replication stress
T1 sequence: B1 chain

ZFP161 D3 mutant = target: T2, ZFP161 D3 mutant (UniProt O43829); assay: co-IP; HEK293T cells transfected with ZFP161 vectors (with S-tagged RPA32 for Fig. 4e), 48 h, immunoprecipitation and immunoblotting
T2 sequence: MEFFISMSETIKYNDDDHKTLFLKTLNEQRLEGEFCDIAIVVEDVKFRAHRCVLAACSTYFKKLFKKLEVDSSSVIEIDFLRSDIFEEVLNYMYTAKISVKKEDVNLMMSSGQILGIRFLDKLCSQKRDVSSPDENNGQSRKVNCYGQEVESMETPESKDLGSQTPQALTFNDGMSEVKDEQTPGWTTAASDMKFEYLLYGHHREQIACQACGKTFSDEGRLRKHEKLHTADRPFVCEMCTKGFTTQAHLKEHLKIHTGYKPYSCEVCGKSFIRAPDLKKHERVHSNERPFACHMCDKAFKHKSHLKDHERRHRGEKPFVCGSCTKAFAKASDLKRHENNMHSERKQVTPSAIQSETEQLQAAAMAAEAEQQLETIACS

Row | Molecule | binding [1] | binding (ZFP161 D3 mutant)
1 | ZFP161 (from UniProt O43829 1-449) | binds | 
2 | B1 |  | no binding
